The supplement of paper PMC8551327
Counter-ions that a name gives are not always drawn. Some of the results follow. Rule as the data show it: active = 1.25 or more and inactive = the rest. Repeats are few or missing, and single values can be far off.

Tested on: Kcc2-LUC knock-in mouse primary cortical neurons (Kcc2 promoter reporter)
Test: Kcc2 promoter-driven luciferase activity relative to vehicle control (fold of vehicle (ratio)); higher = stronger Kcc2 promoter activation (Kcc2 expression enhancer)
Conditions: 100 nM; 48 h

SMILES	Kcc2 promoter-driven luciferase activity
NCCCNCCCCNCCCN [Spermine Hydrochloride]	inactive: 0.76
COC(=O)C12OC[C@]34[C@H]([C@@H](O)[C@@H]1O)[C@@]1(C)C=C(OC5OC(CO)C(O)C(O)C5O)C(=O)[C@@H](C)[C@@H]1C[C@H]3OC(=O)[C@H](OC(=O)/C=C(\C)C(C)C)[C@@H]24 (stereo not given in full) [Bruceantoside A]	inactive: 0.78
COC(=O)c1ccc(NCc2cc(O)ccc2O)cc1 [Methyl 4-(2,5-dihydroxyphenyl methylamino) benzoate]	inactive: 1.04
O=c1c(O)c(-c2ccc(O)c(O)c2)oc2cc(O)ccc12 [Fisetin]	inactive: 1.11
COC(=O)C(=O)C(C(=O)Nc1cccc(C)c1C)C1Sc2ccccc2NC1=O (stereo not given)	inactive: 1.24
CN(C)CCOC1(Cc2ccc(F)cc2)CCC(C(C)(C)C)CC1 (stereo not given)	inactive: 0.964
COc1ccc(CCN(C)CCCC(C#N)(c2ccc(OC)c(OC)c2)C(C)C)cc1OC (stereo not given) [Verapamil Hydrochloride]	inactive: 1.11
O=[N+]([O-])c1ccccc1S(=O)(=O)c1ccccc1[N+](=O)[O-] [Bis(2-nitrophenyl)sulfone]	inactive: 1.07
COc1cccc2c1C(=O)c1c(O)c3c(c(O)c1C2=O)C[C@@](O)(C(C)=O)C[C@@H]3O[C@H]1C[C@H](N)[C@H](O)[C@H](C)O1 [Daunorubicin]	inactive: 0.214
CNC(=O)[C@@H](C)[C@H]1C(=O)/C(=C(O)/C=C/C(C)=C/[C@@H](C)[C@H]2O[C@@]3(C)O[C@H](C=C[C@@]34CO4)[C@@H]2C)C(=O)N1[C@@H]1CC[C@H](O)[C@H](C)O1 [Streptolydigin]	active: 1.32

3 entries from above, reformatted.

| SMILES | Kcc2 promoter-driven luciferase activity |
| --- | --- |
| COC(=O)C(=O)C(C(=O)Nc1cccc(C)c1C)C1Sc2ccccc2NC1=O (stereo not given) | inactive: 1.24 |
| CN(C)CCOC1(Cc2ccc(F)cc2)CCC(C(C)(C)C)CC1 (stereo not given) | inactive: 0.964 |
| COc1ccc(CCN(C)CCCC(C#N)(c2ccc(OC)c(OC)c2)C(C)C)cc1OC (stereo not given) [Verapamil Hydrochloride] | inactive: 1.11 |
